{"source": "PubChem BioAssay AID651558", "about": "(National Center for Advancing Translational Sciences (NCATS), 2012)", "note": "Among all 1,200 compounds or so, about 480 (40%) were called active. The inconclusive results got no clear call from the source; some entries with a clear call stand among them for comparison. Calls come from the whole dose curve; as a rule, active = well fitted inhibition curve with a large enough effect; inconclusive = small, poorly fitted or top-dose-only effect; inactive = no such curve, though single readings can be large or run the other way. Potencies beside an inconclusive call are fits to weak or partial responses and may not hold up. % is set by controls: 0 for no effect and ±100 for the full control effect; potency is the fitted concentration of half-maximal effect."}
{"assay": "qHTS Assay to Find Inhibitors of Chronic Active B-Cell Receptor Signaling: Hit Validation in Primary Screen; note: nearly all actives have a fitted effect of over 75% in size", "settings": "ABC-DLBCL IkB-luc/CBR ratio luminescence, 4 h; series mostly up to 46.1 µM; activity change, negative = inhibition: at the top concentration", "method_in_brief": "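Concentration series (3 nM to 46 uM) tested on TMD8 cells induced with doxycycline for 4 h. Filter-corrected green (IkBa fusion) over red (unfused) luciferase signal; Data were normalised to 10 uM MG-132 and untreated cell wells.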"}
{"smiles": "Cc1ccc(C#N)c(SCc2ccccc2F)n1", "Potency": "inconclusive: 16.4 µM [inhibitor, single point]"}
{"smiles": "Cc1csc(N/N=C/c2ccccn2)n1", "activity change, negative = inhibition": "inactive: -0.0966%"}
{"smiles": "COC(=O)c1[nH]c2ccccc2c1NC(=O)CN1CCN(C/C=C/c2ccccc2)CC1", "Potency": "inconclusive: 7.31 µM [inhibitor, partial curve, poor fit]"}
{"smiles": "Cc1ccc(/C=C/C(=O)c2nc3ccccc3[nH]2)cc1", "Potency": "inconclusive: 20.6 µM [inhibitor, partial curve, poor fit]"}
{"smiles": "O=C(/C=C/c1ccccc1)c1ccc(NC2=NCCCS2)cc1", "Potency": "inconclusive: 14.6 µM [inhibitor, partial curve]"}
{"smiles": "COc1ccc(-c2nn(-c3ccccc3)cc2C(=O)NC(=S)NNC(=O)c2ccncc2)cc1", "activity change, negative = inhibition": "inactive: -10.6%"}
{"smiles": "CC(=O)Nc1ccc(Oc2cc(C#N)c(C#N)cc2N2CCOCC2)cc1", "Potency": "inconclusive: 23.1 µM [inhibitor, partial curve, poor fit]"}
{"smiles": "S=C(Nc1ccccc1)Nc1nccs1", "activity change, negative = inhibition": "inactive: -19.7%"}
{"smiles": "CCc1c(C)c(C#N)c2nc3ccccc3n2c1Cl", "Potency": "inconclusive: 2.91 µM [inhibitor, full curve]"}
{"smiles": "COc1cccc(Nc2sc(C(=O)c3ccc(F)cc3)c(N)c2C(=O)NCc2ccc(C)cc2)c1", "Potency": "inconclusive: 4.11 µM [inhibitor, full curve]"}
{"smiles": "COc1cc(/C=C/c2ccc3cccc(O)c3n2)cc(Br)c1OC", "Potency": "active: 20.6 µM"}
{"smiles": "C=CCOc1c(Cl)cc(C(=S)N2CCCC2)cc1OCC", "Potency": "inconclusive: 16.4 µM [inhibitor, partial curve, poor fit]"}
{"smiles": "COc1ccc(-c2[nH]ncc2/C=C(\\C#N)C(=O)NC2CC2)cc1", "Potency": "inconclusive: 11.6 µM [inhibitor, partial curve]"}
{"smiles": "CCCOc1ccc(Cn2ccnc2)cc1[N+](=O)[O-]", "Potency": "inconclusive: 20.6 µM [inhibitor, partial curve, poor fit]"}
{"smiles": "CCOc1ccccc1NC(=O)N1CCC(N2CCN(Cc3ccccc3)C(=O)C2=O)CC1", "Potency": "inconclusive: 4.11 µM [inhibitor, partial curve]"}
{"smiles": "Cc1[nH]n(C(N)=S)c(=O)c1N=Nc1ccc([N+](=O)[O-])cc1Cl", "activity change, negative = inhibition": "inactive: 65.2%"}
{"smiles": "COc1cccc(/C=N/NC(=O)c2[nH]nc3c2CCc2ccccc2-3)c1O", "Potency": "active: 20.6 µM"}
{"smiles": "CCOC(=O)c1cnc(Nc2nc3ccccc3o2)nc1CSC(=S)N1CCCCC1", "activity change, negative = inhibition": "inactive: -3.65%"}
{"smiles": "CC(=O)N1c2ccc(C)cc2C(c2ccccc2)CC1C", "note": "(configuration not stated)", "Potency": "inconclusive: 8.2 µM [inhibitor, partial curve]"}
{"smiles": "O=C(/C=C/c1ccccc1Cl)c1cccnc1", "Potency": "inconclusive: 20.6 µM [inhibitor, single point]"}
{"smiles": "CCOC(=O)C1=C(N)Oc2ccc3ccccc3c2C1c1ccc(O)c(OC)c1", "note": "(configuration not stated)", "Potency": "inconclusive: 18.4 µM [inhibitor, partial curve]"}
{"smiles": "COc1ccc(CCn2c(N)cc(=O)[nH]c2=S)cc1OC", "Potency": "inconclusive: 18.4 µM [inhibitor, partial curve]"}
{"smiles": "CCN(CC)c1ccc(Nc2cc3n(c(=O)n2)CCc2cc(OC)c(OC)cc2-3)cc1", "activity change, negative = inhibition": "inactive: -4.57%"}
{"smiles": "CCOC(=O)c1c(C=O)c(C)n(Cc2ccccc2)c1C", "Potency": "inconclusive: 0.651 µM [inhibitor, full curve, poor fit]"}
{"smiles": "COc1ccccc1-c1noc(CSc2nc(N)cc(=O)[nH]2)n1", "Potency": "inconclusive: 20.6 µM [inhibitor, partial curve]"}
{"smiles": "Cc1nc2ccc(S(=O)(=O)Nc3cccc(-c4nc5cccnc5s4)c3)cc2s1", "Potency": "inconclusive: 20.6 µM [inhibitor, partial curve, poor fit]"}
{"smiles": "O=C1Nc2ccc(Cl)cc2/C1=C/C1CC=CCC1", "note": "(configuration not stated)", "Potency": "inconclusive: 16.4 µM [inhibitor, single point]"}
{"smiles": "COc1cc(/C=N/NC(=S)Nc2cccnc2)cc(OC)c1OC", "Potency": "inconclusive: 10.3 µM [inhibitor, partial curve, poor fit]"}
{"smiles": "COc1ccccc1N1CCN(Cc2ccc(O)c3ncccc23)CC1", "Potency": "inconclusive: 1.3 µM [inhibitor, partial curve]"}
{"smiles": "CCOC(=O)C1CCN(C(=O)CSc2cc(=O)n(CC)c3ccccc23)CC1", "Potency": "inconclusive: 16.4 µM [inhibitor, partial curve]"}
{"smiles": "COc1cc(C(=O)Nc2nc(C)c(Cc3ccc4c(c3)OCO4)s2)cc(OC)c1OC", "Potency": "inconclusive: 7.31 µM [inhibitor, partial curve]"}
{"smiles": "C=CCNC(=S)N/N=C/c1ccc(C)s1", "activity change, negative = inhibition": "inactive: -9.11%"}
{"smiles": "COc1ccc2c(c1)C(C)=CC(C)(C)N2S(=O)(=O)c1ccc(NC(C)=O)cc1", "Potency": "active: 3.26 µM"}
{"smiles": "COc1ccc(OC)c(C2CC(=O)Nc3n[nH]c(-c4ccccc4)c32)c1", "note": "(configuration not stated)", "activity change, negative = inhibition": "inactive: 110%"}
{"smiles": "Cc1c(CCC(=O)N[C@@H](C)C(=O)O)c(=O)oc2cc3oc4c(c3cc12)CCCC4", "Potency": "inconclusive: 2.91 µM [inhibitor, partial curve]"}
{"smiles": "C=CCn1c(O)c(N=NC(=S)Nc2ccccc2C)c2cc(S(=O)(=O)N3CCOCC3)ccc21", "activity change, negative = inhibition": "inactive: -8.84%"}
{"smiles": "COc1ccc(-c2cnnn2-c2ccc(N)cc2)cc1OC", "Potency": "inconclusive: 14.6 µM [inhibitor, partial curve]"}
{"smiles": "CCOC(=O)N1CCN(S(=O)(=O)c2ccc(C(=O)Nc3ccc(F)cc3F)cc2)CC1", "Potency": "active: 20.6 µM"}
{"smiles": "NC(=S)N=Nc1c(O)n(CCCl)c2ccc(Br)cc12", "Potency": "inconclusive: 23.1 µM [inhibitor, single point]"}
{"smiles": "COc1ccc(C=O)cc1OS(=O)(=O)c1ccc(NC(C)=O)cc1", "Potency": "inconclusive: 18.4 µM [inhibitor, single point]"}
{"smiles": "O=C(Oc1ccc(Cl)c2cccnc12)C12CC3CC(CC(C3)C1)C2", "activity change, negative = inhibition": "inactive: 74.1%"}
{"smiles": "CC1=NN(C(N)=S)C(=O)C1N=Nc1cccc(C)c1", "note": "(configuration not stated)", "activity change, negative = inhibition": "inactive: 21%"}
{"smiles": "COc1cc(/C=N/N(C)c2ccccc2)ccc1O", "activity change, negative = inhibition": "inactive: 85.9%"}
{"smiles": "CCOc1ccc(S(=O)(=O)N2c3ccccc3CC2C)cc1", "note": "(configuration not stated)", "Potency": "active: 14.6 µM"}
{"smiles": "O=C(Nc1nc2c(F)cc(F)cc2s1)c1ccccn1", "Potency": "active: 13 µM"}
{"smiles": "COc1ccc(S(=O)(=O)Nc2ccc3c(c2)n(C)c(=O)n3C)cc1F", "activity change, negative = inhibition": "inactive: 40.4%"}
{"smiles": "COc1cc(C#Cc2ccc3cc(CCCO)oc(=O)c3c2)cc(OC)c1", "Potency": "inconclusive: 3.66 µM [inhibitor, full curve]"}
